{"source": "paper PMC9785231", "about": "“Synthesis and Pharmacological Evaluation of Enantiopure N-Substituted Ortho-c Oxide-Bridged 5-Phenylmorphans” (Molecules, 2022)", "key": {"in vitro": {"assay": "in vitro", "details": "mouse, microsomes"}, "[1]": {"assay": "Microsomal metabolic stability, human liver microsomes"}, "[2]": {"assay": "Microsomal metabolic stability, mouse liver microsomes"}}}
{"smiles": "CCCNCC(O)COc1ccccc1C(=O)CCc1ccccc1", "note": "(stereo not drawn) [Propafenone]", "values": [{"measurement": "CLint scaled", "setting": "in vitro", "result": 187, "unit": "L/h/kg"}, {"measurement": "microsomal CLint", "setting": "in vitro", "result": 789, "unit": "µL/min/mg"}, {"measurement": "Remaining (NCF = 60 min)", "setting": "[1]; HLM 0.5, no co-factor (no NADPH)", "result": 95.8, "unit": "%"}, {"measurement": "Remaining (T = 60 min)", "setting": "[1]; HLM 0.5, with NADPH", "result": 0.1, "unit": "%"}, {"measurement": "Remaining (NCF = 60 min)", "setting": "[2]; MLM 0.5, no co-factor (no NADPH)", "result": 105.6, "unit": "%"}, {"measurement": "Remaining (T = 60 min)", "setting": "[2]; MLM 0.5, with NADPH", "result": 0.0, "unit": "%"}]}
